According to publication PMC7994559:
These are yes or no findings as the source states them, for the method shown. Binding seen in cells or lysates may run through a third protein. Some entries that bind do so weakly or less than the wild type.

Sequences of proteins named here, by UniProt entry; tags and fusion partners are left off.
UniProt P70398: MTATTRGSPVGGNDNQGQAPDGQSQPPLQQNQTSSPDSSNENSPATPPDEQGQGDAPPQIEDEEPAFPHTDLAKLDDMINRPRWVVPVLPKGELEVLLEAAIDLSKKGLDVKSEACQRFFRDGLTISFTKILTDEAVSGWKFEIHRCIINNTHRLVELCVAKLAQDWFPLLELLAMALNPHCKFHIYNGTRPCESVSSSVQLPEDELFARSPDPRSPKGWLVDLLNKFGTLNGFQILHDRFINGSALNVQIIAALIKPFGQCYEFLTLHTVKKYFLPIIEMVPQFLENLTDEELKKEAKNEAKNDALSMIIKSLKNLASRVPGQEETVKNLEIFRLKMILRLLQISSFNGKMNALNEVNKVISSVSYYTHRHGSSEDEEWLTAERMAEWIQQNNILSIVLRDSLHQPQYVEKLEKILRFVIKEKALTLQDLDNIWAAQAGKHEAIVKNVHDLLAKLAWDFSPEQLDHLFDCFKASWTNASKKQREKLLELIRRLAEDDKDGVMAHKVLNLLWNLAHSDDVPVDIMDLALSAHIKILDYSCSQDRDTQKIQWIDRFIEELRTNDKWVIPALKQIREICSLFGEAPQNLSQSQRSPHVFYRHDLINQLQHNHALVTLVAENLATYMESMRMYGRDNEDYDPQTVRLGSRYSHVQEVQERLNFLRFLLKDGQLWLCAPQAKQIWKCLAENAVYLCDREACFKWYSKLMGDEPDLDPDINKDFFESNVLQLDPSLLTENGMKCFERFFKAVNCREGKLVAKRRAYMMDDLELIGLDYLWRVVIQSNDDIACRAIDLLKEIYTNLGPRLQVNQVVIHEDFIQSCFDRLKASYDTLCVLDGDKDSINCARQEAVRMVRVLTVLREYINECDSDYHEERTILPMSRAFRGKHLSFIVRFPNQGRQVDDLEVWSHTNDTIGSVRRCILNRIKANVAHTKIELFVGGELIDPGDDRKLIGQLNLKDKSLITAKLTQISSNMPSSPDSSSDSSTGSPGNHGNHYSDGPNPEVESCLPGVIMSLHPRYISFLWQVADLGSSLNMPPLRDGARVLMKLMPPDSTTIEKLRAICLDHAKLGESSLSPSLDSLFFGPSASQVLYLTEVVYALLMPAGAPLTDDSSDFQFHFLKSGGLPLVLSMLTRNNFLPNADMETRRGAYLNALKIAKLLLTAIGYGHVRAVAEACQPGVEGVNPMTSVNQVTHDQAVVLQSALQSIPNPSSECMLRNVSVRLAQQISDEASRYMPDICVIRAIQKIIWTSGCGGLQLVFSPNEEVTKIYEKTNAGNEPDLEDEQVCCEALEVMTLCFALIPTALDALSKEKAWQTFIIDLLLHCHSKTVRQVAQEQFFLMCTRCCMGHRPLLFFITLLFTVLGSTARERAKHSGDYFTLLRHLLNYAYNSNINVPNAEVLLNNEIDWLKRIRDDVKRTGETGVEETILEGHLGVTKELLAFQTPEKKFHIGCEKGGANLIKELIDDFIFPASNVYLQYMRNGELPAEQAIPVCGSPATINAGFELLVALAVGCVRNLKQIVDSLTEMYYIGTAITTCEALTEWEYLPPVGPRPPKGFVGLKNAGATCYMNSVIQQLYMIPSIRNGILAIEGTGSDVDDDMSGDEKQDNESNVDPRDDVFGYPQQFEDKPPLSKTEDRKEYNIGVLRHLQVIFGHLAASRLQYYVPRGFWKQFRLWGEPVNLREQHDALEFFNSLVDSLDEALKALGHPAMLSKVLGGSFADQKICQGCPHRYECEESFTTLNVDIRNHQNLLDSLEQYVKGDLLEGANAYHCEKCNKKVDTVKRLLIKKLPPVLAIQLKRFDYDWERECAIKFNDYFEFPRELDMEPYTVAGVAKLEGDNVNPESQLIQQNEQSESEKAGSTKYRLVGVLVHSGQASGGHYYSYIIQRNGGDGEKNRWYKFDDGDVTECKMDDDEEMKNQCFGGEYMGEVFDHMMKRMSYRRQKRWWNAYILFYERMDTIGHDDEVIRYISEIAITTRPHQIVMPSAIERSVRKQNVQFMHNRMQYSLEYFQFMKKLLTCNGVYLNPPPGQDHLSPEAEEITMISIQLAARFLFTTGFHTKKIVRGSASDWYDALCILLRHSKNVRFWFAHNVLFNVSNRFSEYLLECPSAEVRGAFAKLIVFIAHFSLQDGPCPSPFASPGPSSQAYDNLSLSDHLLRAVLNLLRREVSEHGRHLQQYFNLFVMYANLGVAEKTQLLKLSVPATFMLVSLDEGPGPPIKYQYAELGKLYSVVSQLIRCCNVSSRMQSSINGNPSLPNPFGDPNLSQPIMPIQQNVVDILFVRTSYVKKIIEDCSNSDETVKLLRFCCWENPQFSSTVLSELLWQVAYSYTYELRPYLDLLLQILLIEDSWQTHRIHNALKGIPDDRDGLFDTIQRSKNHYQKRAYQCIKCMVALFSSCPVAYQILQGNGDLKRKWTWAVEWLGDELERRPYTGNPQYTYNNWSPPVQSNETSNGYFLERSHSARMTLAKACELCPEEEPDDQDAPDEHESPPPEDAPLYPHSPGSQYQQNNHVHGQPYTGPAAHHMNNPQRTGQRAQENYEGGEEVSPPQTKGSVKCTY
UniProt Q61188: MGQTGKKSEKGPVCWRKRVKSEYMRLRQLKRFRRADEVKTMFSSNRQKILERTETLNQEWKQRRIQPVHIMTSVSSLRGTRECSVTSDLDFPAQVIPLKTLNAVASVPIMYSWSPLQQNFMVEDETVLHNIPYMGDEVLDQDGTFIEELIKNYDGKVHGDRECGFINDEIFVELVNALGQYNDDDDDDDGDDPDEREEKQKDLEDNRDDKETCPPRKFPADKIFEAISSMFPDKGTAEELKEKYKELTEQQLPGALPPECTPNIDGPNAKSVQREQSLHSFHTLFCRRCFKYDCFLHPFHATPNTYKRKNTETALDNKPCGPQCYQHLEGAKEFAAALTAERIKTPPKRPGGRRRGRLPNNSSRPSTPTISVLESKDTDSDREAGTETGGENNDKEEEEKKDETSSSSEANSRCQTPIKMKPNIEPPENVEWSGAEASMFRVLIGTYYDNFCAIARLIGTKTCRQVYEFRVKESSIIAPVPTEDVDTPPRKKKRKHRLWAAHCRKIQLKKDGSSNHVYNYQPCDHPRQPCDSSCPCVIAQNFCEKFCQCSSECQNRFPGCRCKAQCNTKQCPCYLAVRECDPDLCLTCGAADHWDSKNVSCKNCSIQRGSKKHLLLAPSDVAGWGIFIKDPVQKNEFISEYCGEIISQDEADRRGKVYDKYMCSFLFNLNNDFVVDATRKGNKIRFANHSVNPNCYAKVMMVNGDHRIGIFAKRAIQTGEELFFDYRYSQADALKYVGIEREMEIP
UniProt Q80U70: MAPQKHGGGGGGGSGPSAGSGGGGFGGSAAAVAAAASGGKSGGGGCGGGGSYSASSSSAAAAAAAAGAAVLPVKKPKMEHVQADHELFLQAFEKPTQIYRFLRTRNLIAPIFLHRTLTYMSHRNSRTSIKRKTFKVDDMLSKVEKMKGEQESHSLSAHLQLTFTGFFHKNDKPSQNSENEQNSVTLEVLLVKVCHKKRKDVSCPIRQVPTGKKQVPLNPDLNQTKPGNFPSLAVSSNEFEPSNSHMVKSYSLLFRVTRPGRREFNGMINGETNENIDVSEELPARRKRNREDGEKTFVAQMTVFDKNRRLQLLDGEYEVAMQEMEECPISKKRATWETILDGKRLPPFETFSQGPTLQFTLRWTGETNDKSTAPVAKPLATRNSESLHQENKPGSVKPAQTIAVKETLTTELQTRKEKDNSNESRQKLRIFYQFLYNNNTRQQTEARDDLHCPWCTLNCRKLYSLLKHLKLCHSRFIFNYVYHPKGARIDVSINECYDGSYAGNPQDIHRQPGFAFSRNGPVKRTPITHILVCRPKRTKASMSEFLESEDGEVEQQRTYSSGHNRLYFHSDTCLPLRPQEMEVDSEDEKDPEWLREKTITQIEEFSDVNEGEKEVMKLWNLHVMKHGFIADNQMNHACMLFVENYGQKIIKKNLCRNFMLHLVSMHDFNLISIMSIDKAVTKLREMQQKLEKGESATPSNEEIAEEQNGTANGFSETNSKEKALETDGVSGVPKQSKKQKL

Tests used:
[1] = target: Ubiquitin Specific Protease 9x (Usp9x) (mouse (endogenous in ES cells)) (UniProt P70398); test: co-IP; ES cell nuclear extracts (0.5 M NaCl lysis, diluted in 150 mM NaCl, 10 mM Tris pH 8, 0.5% sodium deoxycholate, 1% Triton X-100 buffer); IP with rabbit anti-Usp9x, anti-Ezh2 or IgG, Protein A Dynabeads, 4 °C; western blot
[2] = target: Ezh2 (mouse (endogenous in ES cells)) (UniProt Q61188); test: as above

binding [1] | binding [2] | Substance
binds |  | Suz12 (from UniProt Q80U70 1-741)
binds |  | Ezh2 (from UniProt Q61188 1-746)
 | binds | Ubiquitin Specific Protease 9x (Usp9x) (from UniProt P70398 1-2559) (enzyme)
